# In the supplement of paper PMC5949888:
# Most values lie at the floor of the assay. Slopes are relative: functional sequences can read slightly below zero.
# System: Saccharomyces cerevisiae PS128 hsf1 delta, HSF1(1-493) fusion
# Assay: growth estimate (transactivation domain function in HSF1 fusion, heat-shock survival) (a.u. (slope of normalised read count over time)); higher = stronger growth at 37°C, i.e. more transactivation activity
# Conditions: library: random library
row,Substance,growth estimate
1,LFCVVRRHREYSSFRLLKRL,< -0.25
2,LFGPRPEYTIWAIGPTGPGA,< -0.25
3,LFHCKPRIDNRGHWCH,< -0.25
4,LFHENATRCRSCIVFVFTAS,< -0.25
5,LFI,< -0.25
6,LFISSSEPSQ,< -0.25
7,LFKDYTSIQLMDGGNGTCGV,< -0.25
8,LFKITESFVYGLCIPCYLTQ,< -0.25
9,LFKVAVRGRTASSAARGFRL,< -0.25
10,LFLFEGLVHSKVGE,< -0.25
11,LFLRVISECGDNVLRVLTLD,< -0.25
12,LFMGGWFRARLVTRLALEQL,< -0.25
13,LFNAPLD,< -0.25
14,LFPLYLGILIRRIERAVSGA,< -0.25
15,LFPSHNRLVIAPGLPVPAVR,-0.243
16,LFQPLRAVLRQDGITTSLIP,< -0.25
17,LFR,< -0.25
18,LFRNLPFTGTDRICCYLNSF,< -0.25
19,LFRRATFSIKCDQSS,< -0.25
20,LFRVPRAKRHSG,< -0.25
21,LFRYRQGRGVARDTTA,< -0.25
22,LFSR,< -0.25
23,LFSTCVTFCLP,< -0.25
24,LFSYQG,< -0.25

row,Substance,growth estimate
1,LFTKLGGAWAPLEHSYYALK,< -0.25
2,LFVGAHHS,-0.243
3,LFYIPEFPRPPASTR,< -0.25
4,LFYQRTPHVLTSQLSVSHTG,< -0.25
5,LFYTDIPNTLGTLGRSYVES,< -0.25
6,LFYTVTNQLFLRSNTCPVMT,< -0.25
7,LGAKWDCRMSNQ,< -0.25
8,LGASPYS,< -0.25
9,LGCHGLRVGTGYRHG,< -0.25
10,LGCLLAGAPFCDPDMSGIVG,< -0.25
11,LGCSRVQEEYNFIKVVDWIW,< -0.25
12,LGCVRRWSSIRRALESLYFQ,< -0.25
13,LGEARRT,< -0.25
14,LGEMTIR,-0.246
15,LGERDQNRHG,< -0.25
16,LGEVDQEHRDDSTNYLPECT,< -0.25
17,LGF,< -0.25
18,LGFKFAYRCLRLT,< -0.25
19,LGGGAQGYSVVIITGHADRL,< -0.25
20,LGGKIGECKVVRTLSHSSEA,< -0.25
21,LGGSAEGTDTTCRRS,< -0.25
22,LGGSNHFVSCRASNGHNIRP,< -0.25
23,LGGV,< -0.25
24,LGHCTLVGCDFQANS,< -0.25

row,Substance,growth estimate
1,LGHGGGIGSLRIRQLCEAES,< -0.25
2,LGIAQSEVSRFTAVAIFRRA,< -0.25
3,LGIAYNHAVPPPIDVGGRTR,< -0.25
4,LGIG,< -0.25
5,LGIGLSWCLGNRYVE,-0.149
6,LGIGVSVRGSVDANVIEGGM,< -0.25
7,LGIIPLSSRK,< -0.25
8,LGILPGDLVR,< -0.25
9,LGISGRRFVRSYFEGGPQRR,< -0.25
10,LGK,< -0.25
11,LGKSDTMTLQSLADIPRTAP,< -0.25
12,LGKTRSVVQPVGRSQASAGY,< -0.25
13,LGLGSGLEG,< -0.25
14,LGLLVCVKEPNFISLGRGSI,< -0.25
15,LGLPTLKRAKTRVHTGS,< -0.25
16,LGLRQLTSLQIQTEPDARRS,< -0.25
17,LGMNINRSLDVYHRVRWCLR,< -0.25
18,LGNLCLSGLINSNVSYVFGG,< -0.25
19,LGNRKV,< -0.25
20,LGNRQCNQASDALKSPVLVL,< -0.25
21,LGPKLG,< -0.25
22,LGPKLLRLWTLTPKFLTYVP,< -0.25
23,LGPLWIPP,< -0.25
24,LGPSLNAFRKALCSYYGWNS,-0.245

# Shown tab-delimited: entries from further up.
row	Substance	growth estimate
2	LGIAQSEVSRFTAVAIFRRA	< -0.25
6	LGIGVSVRGSVDANVIEGGM	< -0.25
23	LGPLWIPP	< -0.25

# Fetched one by one from above (five):
row,Substance,growth estimate
16,LFQPLRAVLRQDGITTSLIP,< -0.25
6,LGIGVSVRGSVDANVIEGGM,< -0.25
10,LFLFEGLVHSKVGE,< -0.25
7,LGIIPLSSRK,< -0.25
24,LGHCTLVGCDFQANS,< -0.25

# Next results follow:

row,Substance,growth estimate
1,LGPTDPRLTGCSRYRYTNAF,< -0.25
2,LGRDYCR,< -0.25
3,LGREVWAATTRI,< -0.25
4,LGRK,< -0.25
5,LGRLTRELGRGECFLERYPR,< -0.25
6,LGRMGHPMPLILAPLSRRHA,< -0.25
7,LGRRAKAHCRANRPRRFGPA,< -0.25
8,LGRRESAASCGRIFAN,-0.241
9,LGRSPQACVRGQIGAWTSMV,< -0.25
10,LGRVIRVLL,< -0.25
11,LGRYRF,< -0.25
12,LGSCSNSAP,< -0.25
13,LGSFSPKQDLFAMLPFRTYN,< -0.25
14,LGSGLSRFAAPLEGRHCIPR,< -0.25
15,LGSGYDVAGLQSEIRERRPG,< -0.25
16,LGSLQNSGTVASNSLSKTRL,< -0.25
17,LGSSDGRRVGPSPMGGPSSL,< -0.25
18,LGSSGALLGFHRLCGLLDE,< -0.25
19,LGSTWF,< -0.25
20,LGTE,< -0.25
21,LGTGIVQPYRIGNLQVLVSS,< -0.25
22,LGTIKPTGTG,< -0.25
23,LGTLSTTN,< -0.25
24,LGTNDRSVGVIAFGRVPPSN,< -0.25

row,Substance,growth estimate
1,LGTP,< -0.25
2,LGTRGFRRRGVGIATQHIRL,< -0.25
3,LGTRTILKVSDRAGT,< -0.25
4,LGTRVVD,< -0.25
5,LGTTVRMIPRKSVGRWVRTR,< -0.25
6,LGVAPMMLESLGCPE,< -0.25
7,LGVDKRSNHRGNGR,< -0.25
8,LGVDVIASDLAPVSAYELGC,< -0.25
9,LGVGC,< -0.25
10,LGVGGLSLVIDRSGVNCVCE,< -0.25
11,LGVK,< -0.25
12,LGVKSIEEKLR,< -0.25
13,LGVNMIGHCYNGA,< -0.25
14,LGVPTRRRGLASITAHGTVG,< -0.25
15,LGVRFDVNYLSGTKSRRNTG,< -0.25
16,LGVSSGIKKLVPKIPDAAAE,< -0.25
17,LGVTKSMRASWAVSWI,< -0.25
18,LGWCTAWGRFNLRISFSADC,< -0.25
19,LGWGPPGNKLT,< -0.25
20,LGWI,< -0.25
21,LGYQFDILELYGPSTSSFS,0.793
22,LGYS,< -0.25
23,LHAE,< -0.25
24,LHATIVLKSAAGSYLPILWL,< -0.25

row,Substance,growth estimate
1,LHEAY,< -0.25
2,LHEGR,< -0.25
3,LHERSSLVNADHMF,< -0.25
4,LHEWGYYVFSGGFGSITRGR,< -0.25
5,LHFRPLPRITGSVGFAPMVF,< -0.25
6,LHGISSCVVTV,< -0.25
7,LHGVYWQGIVVLGIAKIDQT,< -0.25
8,LHHFRFRVSMRHRHLMERRR,< -0.25
9,LHHQAPGVIYVARVGVG,< -0.25
10,LHLRRTYIAASMRFMGRCHL,< -0.25
11,LHLRSVNTFRITARVVF,< -0.25
12,LHQAIG,< -0.25
13,LHQYTL,< -0.25
14,LHRFRLELGGNSGNSLPMPA,< -0.25
15,LHSSELLRGFRTPRGYRVVQ,< -0.25
16,LHTP,< -0.25
17,LHTVPAVFRVNPPMCQGTEC,< -0.25
18,LHVLCWNQEFRSCPPCADST,< -0.25
19,LHVTGIHLTRREQRMVLKVS,< -0.25
20,LIARRSEVFLEVRGKSTVYT,< -0.25
21,LIAVGLYLVTGRNLEFRNAV,< -0.25
22,LIDGCKKVRQRRVNS,< -0.25
23,LIDNPGLFDGDPCAEQCELG,< -0.25
24,LIESETHVIDKRCG,< -0.25
